In patent US20230086865A1, “ANTI-INFECTIVE BICYCLIC PEPTIDE CONJUGATES” (priority 2020, published 2023):
In brackets after ≈: the same amount, converted by molar mass.

Tests used:
P. aeruginosa ATCC 27853 = test: MIC follow-on study; settings: Pseudomonas aeruginosa, ATCC27853
P. aeruginosa NCTC 13437 = test: MIC follow-on study; format: cell-based; settings: Pseudomonas aeruginosa, NCTC13437
Protocol: Minimum inhibitory concentration (MIC) assays were carried out using E. coli strains: GKCW101; GKCW102 and ATCC25922 using the method described by Antimicrobial Agents and Chemotherapy December 2016 Volume 60 Number 12 pages 7372-7381 and CLSI, 2020. Performance standards for antimicrobial susceptibility testing. Clinical Lab Standards Institute.
As a follow-on study, the MIC of BCY13246 was measured against a range of bacterial targets and compared with the MIC for the constituent bicyclic peptide ([…]) and carrier peptide ([…]) alone along with existing anti-microbial agents meropenem and levofloxacin. […].

C[C@H]1COc2c(N3CCN(C)CC3)c(F)cc3c(=O)c(C(=O)O)cn1c23 [Levofloxacin, levofloxacin]
MIC (P. aeruginosa ATCC 27853): 1 µg/mL (≈ 2.77 µM)
MIC (P. aeruginosa NCTC 13437): > 2 µg/mL
